Source: the supplement of paper PMC10849652
The list shows a part of the results.

The chains behind the UniProt entries cited, without tags or fusion partners. Where a name states a change or a piece, a line headed by the entry shows the natural chain unless it says otherwise.
UniProt P63165, whole entry, looked up: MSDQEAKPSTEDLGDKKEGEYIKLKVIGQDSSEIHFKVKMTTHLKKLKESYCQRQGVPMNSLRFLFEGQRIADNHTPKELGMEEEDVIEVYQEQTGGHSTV
UniProt O15056: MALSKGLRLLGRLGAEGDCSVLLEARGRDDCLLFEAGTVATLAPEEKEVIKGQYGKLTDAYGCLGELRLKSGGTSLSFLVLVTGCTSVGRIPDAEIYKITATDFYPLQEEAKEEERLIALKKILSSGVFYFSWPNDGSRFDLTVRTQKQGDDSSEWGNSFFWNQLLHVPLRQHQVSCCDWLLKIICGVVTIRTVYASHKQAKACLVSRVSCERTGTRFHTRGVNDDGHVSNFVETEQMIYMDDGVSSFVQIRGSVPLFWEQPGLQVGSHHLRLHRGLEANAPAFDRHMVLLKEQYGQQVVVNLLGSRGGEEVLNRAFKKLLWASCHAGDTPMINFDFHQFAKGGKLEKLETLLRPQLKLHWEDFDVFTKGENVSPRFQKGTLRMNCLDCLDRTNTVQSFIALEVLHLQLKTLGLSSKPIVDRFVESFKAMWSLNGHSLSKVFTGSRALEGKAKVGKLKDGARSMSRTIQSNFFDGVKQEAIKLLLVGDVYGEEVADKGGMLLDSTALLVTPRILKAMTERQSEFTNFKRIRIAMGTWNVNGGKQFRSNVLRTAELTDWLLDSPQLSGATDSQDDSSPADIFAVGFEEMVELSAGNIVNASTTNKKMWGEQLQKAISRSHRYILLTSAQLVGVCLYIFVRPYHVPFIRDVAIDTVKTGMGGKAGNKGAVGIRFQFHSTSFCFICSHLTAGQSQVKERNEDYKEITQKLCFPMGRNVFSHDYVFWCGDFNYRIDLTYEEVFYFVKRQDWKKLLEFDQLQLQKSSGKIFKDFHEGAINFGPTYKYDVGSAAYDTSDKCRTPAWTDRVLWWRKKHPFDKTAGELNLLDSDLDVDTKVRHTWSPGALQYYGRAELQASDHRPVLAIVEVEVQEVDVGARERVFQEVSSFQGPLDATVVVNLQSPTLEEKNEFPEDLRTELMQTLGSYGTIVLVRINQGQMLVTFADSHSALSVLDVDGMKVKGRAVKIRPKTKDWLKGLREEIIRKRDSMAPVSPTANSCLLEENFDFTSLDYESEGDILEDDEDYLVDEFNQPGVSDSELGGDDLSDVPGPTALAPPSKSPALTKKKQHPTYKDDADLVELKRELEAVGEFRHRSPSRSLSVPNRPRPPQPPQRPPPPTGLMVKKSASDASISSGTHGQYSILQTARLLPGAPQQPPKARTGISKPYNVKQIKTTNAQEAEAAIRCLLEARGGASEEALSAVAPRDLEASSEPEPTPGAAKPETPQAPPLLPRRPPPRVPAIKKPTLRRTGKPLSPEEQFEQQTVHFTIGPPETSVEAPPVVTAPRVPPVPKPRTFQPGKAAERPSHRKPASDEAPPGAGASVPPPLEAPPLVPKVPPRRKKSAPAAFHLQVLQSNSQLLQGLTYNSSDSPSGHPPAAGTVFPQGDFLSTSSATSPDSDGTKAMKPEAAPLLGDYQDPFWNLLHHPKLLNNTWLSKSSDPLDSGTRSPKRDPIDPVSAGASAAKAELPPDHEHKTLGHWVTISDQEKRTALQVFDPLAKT
UniProt Q93075: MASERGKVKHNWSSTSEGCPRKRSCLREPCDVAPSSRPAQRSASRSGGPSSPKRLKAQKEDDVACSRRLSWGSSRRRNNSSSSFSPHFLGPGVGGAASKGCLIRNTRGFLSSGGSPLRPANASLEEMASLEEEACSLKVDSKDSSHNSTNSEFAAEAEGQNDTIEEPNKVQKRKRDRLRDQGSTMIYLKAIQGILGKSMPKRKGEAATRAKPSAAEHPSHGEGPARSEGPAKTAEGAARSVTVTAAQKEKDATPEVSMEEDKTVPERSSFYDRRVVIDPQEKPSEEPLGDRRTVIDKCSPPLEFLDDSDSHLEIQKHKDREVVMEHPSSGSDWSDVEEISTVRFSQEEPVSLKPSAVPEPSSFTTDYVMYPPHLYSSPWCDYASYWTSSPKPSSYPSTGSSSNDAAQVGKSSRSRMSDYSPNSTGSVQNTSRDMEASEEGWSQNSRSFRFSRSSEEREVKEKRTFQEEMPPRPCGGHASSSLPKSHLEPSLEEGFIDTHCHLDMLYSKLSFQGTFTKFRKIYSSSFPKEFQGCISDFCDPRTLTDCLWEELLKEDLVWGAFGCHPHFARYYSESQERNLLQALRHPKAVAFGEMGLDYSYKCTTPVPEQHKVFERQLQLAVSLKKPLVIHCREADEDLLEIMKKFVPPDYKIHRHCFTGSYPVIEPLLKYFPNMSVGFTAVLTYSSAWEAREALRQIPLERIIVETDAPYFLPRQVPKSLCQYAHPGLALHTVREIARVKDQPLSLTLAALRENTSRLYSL
UniProt Q8NBK3: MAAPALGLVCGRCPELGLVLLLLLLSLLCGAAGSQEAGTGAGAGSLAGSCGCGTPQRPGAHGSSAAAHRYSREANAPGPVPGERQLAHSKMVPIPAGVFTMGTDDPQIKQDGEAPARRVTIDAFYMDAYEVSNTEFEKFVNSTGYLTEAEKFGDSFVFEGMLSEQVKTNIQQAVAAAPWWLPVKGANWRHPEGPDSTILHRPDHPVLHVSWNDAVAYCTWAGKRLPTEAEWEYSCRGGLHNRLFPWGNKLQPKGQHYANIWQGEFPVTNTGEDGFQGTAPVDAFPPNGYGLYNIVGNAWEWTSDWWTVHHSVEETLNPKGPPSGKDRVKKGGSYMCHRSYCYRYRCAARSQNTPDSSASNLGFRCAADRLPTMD
UniProt Q9Y5B9, whole entry, looked up: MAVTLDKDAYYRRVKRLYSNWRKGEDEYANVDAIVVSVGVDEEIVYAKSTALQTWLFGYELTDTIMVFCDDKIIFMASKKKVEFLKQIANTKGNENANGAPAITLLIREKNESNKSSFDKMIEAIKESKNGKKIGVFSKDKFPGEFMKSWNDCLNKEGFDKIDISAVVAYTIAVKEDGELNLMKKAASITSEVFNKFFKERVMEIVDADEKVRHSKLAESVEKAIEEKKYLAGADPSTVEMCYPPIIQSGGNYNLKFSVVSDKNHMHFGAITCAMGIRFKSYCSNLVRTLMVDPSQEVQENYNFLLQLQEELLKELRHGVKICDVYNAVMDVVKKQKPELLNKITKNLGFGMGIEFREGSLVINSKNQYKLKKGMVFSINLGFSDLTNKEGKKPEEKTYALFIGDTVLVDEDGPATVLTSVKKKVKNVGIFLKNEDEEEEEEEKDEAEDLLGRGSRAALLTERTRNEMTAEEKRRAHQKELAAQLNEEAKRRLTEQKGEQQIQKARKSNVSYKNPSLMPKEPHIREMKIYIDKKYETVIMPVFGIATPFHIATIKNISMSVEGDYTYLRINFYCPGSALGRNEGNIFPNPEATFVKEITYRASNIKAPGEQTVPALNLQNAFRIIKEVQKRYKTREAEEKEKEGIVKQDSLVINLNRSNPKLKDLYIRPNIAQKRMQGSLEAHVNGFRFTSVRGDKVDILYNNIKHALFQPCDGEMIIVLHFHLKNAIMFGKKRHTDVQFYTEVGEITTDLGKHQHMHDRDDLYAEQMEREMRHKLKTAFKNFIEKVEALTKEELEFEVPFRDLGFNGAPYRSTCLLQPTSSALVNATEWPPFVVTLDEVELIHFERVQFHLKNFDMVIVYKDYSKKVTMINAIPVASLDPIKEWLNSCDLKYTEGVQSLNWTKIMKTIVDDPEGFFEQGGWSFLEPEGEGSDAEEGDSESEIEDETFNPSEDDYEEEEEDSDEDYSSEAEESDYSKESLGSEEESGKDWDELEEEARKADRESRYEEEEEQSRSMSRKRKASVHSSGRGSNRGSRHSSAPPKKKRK
UniProt Q9P2R7: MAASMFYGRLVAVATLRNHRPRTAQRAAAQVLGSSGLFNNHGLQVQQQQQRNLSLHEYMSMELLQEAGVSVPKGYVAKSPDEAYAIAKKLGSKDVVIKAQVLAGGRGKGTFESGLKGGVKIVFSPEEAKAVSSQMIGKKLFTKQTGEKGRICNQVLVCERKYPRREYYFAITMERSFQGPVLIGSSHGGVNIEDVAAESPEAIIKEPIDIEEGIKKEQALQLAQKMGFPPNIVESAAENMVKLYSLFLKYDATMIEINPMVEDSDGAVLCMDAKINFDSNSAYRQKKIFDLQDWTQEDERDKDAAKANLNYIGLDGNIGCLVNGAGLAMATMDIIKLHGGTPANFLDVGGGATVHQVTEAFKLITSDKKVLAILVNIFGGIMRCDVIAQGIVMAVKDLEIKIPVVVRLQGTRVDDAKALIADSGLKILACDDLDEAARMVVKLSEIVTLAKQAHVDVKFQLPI
UniProt Q16594, whole entry, looked up: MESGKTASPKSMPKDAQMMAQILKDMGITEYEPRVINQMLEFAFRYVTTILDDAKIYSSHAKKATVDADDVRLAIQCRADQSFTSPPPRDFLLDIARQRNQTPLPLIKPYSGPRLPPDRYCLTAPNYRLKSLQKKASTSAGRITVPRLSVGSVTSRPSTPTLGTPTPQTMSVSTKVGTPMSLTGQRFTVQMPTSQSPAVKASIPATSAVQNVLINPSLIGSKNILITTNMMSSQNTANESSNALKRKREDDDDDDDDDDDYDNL
UniProt Q8IWZ8: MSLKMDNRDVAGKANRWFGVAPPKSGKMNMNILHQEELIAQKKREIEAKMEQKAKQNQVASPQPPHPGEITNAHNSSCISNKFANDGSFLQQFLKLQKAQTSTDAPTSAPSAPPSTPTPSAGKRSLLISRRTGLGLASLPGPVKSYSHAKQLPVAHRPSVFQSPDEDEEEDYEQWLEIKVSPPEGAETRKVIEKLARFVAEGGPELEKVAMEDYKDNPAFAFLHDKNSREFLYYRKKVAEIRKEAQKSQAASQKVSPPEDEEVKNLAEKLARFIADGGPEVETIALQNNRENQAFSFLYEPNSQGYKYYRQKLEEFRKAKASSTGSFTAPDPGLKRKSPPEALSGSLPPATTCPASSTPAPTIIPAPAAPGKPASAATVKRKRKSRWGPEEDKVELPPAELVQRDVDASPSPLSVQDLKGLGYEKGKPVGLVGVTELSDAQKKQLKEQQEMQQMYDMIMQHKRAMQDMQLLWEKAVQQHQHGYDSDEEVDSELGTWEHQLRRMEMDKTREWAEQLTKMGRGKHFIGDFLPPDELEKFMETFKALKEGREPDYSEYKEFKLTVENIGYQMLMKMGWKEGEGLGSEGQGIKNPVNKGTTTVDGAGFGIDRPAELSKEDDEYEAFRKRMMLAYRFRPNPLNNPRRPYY
UniProt P51687: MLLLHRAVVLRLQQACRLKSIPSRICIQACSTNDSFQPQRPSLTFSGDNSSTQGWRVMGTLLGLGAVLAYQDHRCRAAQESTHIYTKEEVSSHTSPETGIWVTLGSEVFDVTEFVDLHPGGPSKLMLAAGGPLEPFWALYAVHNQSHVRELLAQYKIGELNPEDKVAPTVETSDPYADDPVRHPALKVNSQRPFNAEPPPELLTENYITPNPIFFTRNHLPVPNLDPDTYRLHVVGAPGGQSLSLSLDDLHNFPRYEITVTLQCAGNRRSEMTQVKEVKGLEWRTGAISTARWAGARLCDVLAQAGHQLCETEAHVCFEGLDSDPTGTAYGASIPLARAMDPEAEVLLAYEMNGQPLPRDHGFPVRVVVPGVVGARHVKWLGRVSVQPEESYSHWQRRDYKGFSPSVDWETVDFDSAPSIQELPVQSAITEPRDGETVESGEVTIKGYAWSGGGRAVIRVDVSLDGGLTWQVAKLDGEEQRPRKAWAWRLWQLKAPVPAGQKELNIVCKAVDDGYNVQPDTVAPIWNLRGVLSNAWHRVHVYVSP
UniProt Q9H2K8: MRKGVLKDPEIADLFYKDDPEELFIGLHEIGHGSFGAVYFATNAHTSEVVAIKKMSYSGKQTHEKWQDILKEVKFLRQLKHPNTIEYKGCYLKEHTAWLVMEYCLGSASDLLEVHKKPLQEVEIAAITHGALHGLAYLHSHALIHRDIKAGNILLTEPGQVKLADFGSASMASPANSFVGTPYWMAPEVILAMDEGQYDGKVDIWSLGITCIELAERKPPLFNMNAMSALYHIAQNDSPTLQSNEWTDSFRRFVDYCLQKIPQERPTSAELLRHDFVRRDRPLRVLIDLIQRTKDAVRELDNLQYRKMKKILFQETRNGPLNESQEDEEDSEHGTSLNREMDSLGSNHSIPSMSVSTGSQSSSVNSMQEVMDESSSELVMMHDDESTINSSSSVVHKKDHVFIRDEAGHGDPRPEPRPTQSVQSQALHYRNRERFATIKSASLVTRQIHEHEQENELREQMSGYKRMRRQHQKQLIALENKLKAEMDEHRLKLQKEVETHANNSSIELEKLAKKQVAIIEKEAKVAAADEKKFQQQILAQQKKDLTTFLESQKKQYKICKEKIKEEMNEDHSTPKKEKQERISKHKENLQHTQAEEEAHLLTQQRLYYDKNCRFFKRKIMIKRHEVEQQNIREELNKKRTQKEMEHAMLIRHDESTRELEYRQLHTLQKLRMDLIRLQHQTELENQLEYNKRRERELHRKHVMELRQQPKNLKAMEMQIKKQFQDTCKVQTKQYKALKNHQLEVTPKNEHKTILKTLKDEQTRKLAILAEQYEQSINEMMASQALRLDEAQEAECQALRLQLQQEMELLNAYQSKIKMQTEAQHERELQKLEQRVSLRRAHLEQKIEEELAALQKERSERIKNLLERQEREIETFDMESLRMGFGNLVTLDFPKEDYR

Assays:
Assay in all cases: log2 fold change, soluble protein after heating vs DMSO (PISA); higher = thermal stabilisation; K562 cells, 10 uM, 30 min; active = over 0.2 and 3.5 SD of the protein, either way, in both replicates (recomputed)
[1] = compound: CS(=O)(=O)c1ccc(-c2cnc(N)c(C(=O)Nc3ccccc3)n2)cc1
Outline: (§1)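 K562 cells (2×10^6 cells/mL) were treated with 10 μM compound for 30 min, and aliquots were heated for 3 min over 48°C-58°C. Pooled aliquots were extracted in PBS with 0.5% NP-40 at 4°C, and the supernatant after 21,000xg for 90 min was measured by TMTpro 16plex LC-MS/MS with channel sums equalised. Reported thermal stability, relative to control samples and from duplicates, is a log2 fold change.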

crizotinib = compound: C[C@@H](Oc1cc(-c2cnn(C3CCNCC3)c2)cnc1N)c1c(Cl)ccc(F)c1Cl [crizotinib]
Outline: as §1

[2] = compound: C[C@@H]1COCCN1C2=NC(=NC(=C2)C3(CC3)S(=O)(=O)C)C4=C5C=CNC5=CC=C4
Outline: as §1

[3] = compound: C[C@H](C1=CC=C(C=C1)C(=O)NC2=C3C=CNC3=NC=C2)N
Outline: as §1

gandotinib = compound: Cc1cc(Nc2cc(CN3CCOCC3)c3nc(C)c(Cc4ccc(Cl)cc4F)n3n2)n[nH]1 [gandotinib]
Outline: as §1

[4] = compound: Cc1cc(SCc2sc(-c3ccc(C(F)(F)F)cc3)nc2C)ccc1OCC(=O)O
Outline: as §1

doramapimod = compound: Cc1ccc(-n2nc(C(C)(C)C)cc2NC(=O)Nc2ccc(OCCN3CCOCC3)c3ccccc23)cc1 [doramapimod]
Outline: as §1

ispinesib = compound: Cc1ccc(C(=O)N(CCCN)[C@@H](c2nc3cc(Cl)ccc3c(=O)n2Cc2ccccc2)C(C)C)cc1 [ispinesib]
Outline: as §1

bafetinib = compound: Cc1ccc(NC(=O)c2ccc(CN3CC[C@H](N(C)C)C3)c(C(F)(F)F)c2)cc1Nc1nccc(-c2cncnc2)n1 [bafetinib]
Outline: as §1

[5] = compound: Cc1cccc(CC(=O)N2CCc3c2ccc(-c2cn(C)c4ncnc(N)c24)c3F)n1
Outline: as §1

nilotinib = compound: Cc1cn(-c2cc(NC(=O)c3ccc(C)c(Nc4nccc(-c5cccnc5)n4)c3)cc(C(F)(F)F)c2)cn1 [nilotinib]
Outline: as §1

[6] = compound: Cc1nc(Nc2n[nH]c3c2CN(C(=O)N[C@H](CN(C)C)c2ccccc2)C3(C)C)c2sccc2n1
Outline: as §1

dasatinib = compound: Cc1nc(Nc2ncc(C(=O)Nc3c(C)cccc3Cl)s2)cc(N2CCN(CCO)CC2)n1 [dasatinib]
Outline: as §1

[7] = compound: Cc1ncc(-c2ccnc(Nc3ccc(S(C)(=O)=O)cc3)n2)n1C(C)C
Outline: as §1

[8] = compound: Cn1cc(-c2ccc3c(c2)CCN3C(=O)Cc2cccc(C(F)(F)F)c2)c2c(N)ncnc21
Outline: as §1

[9] = compound: Cn1cc(-c2ccc3nnc(C(F)(F)c4ccc5ncccc5c4)n3n2)cn1
Outline: as §1

tipifarnib = compound: Cn1cncc1[C@@](N)(c1ccc(Cl)cc1)c1ccc2c(c1)c(-c1cccc(Cl)c1)cc(=O)n2C [tipifarnib]
Outline: as §1

mubritinib = compound: FC(F)(F)c1ccc(/C=C/c2nc(COc3ccc(CCCCn4ccnn4)cc3)co2)cc1 [mubritinib]
Outline: as §1

duvelisib = compound: C[C@H](Nc1ncnc2nc[nH]c12)c1cc2cccc(Cl)c2c(=O)n1-c1ccccc1 [duvelisib]
Outline: as §1

tozasertib = compound: Cc1cc(Nc2cc(N3CCN(C)CC3)nc(Sc3ccc(NC(=O)C4CC4)cc3)n2)n[nH]1 [tozasertib]
Outline: as §1

Target	log2 fold change [1]	log2 fold change (crizotinib)	log2 fold change [2]	log2 fold change [3]	log2 fold change (gandotinib)	log2 fold change [4]	log2 fold change (doramapimod)	log2 fold change (ispinesib)	log2 fold change (bafetinib)	log2 fold change [5]	log2 fold change (nilotinib)	log2 fold change [6]	log2 fold change (dasatinib)	log2 fold change [7]	log2 fold change [8]	log2 fold change [9]	log2 fold change (tipifarnib)	log2 fold change (mubritinib)	log2 fold change (duvelisib)	log2 fold change (tozasertib)
SUMO1 (UniProt P63165)	inactive: -0.125	inactive: 0.06	inactive: -0.045	inactive: 0.176	inactive: 0.064	inactive: -0.039	inactive: -0.038	inactive: 0.039	inactive: -0.071	inactive: -0.023	inactive: -0.022	inactive: -0.078	inactive: 0.041	inactive: -0.04	inactive: -0.209	inactive: -0.068	inactive: -0.35	inactive: 0.001		
STRN (UniProt O43815)	inactive: 0.016	inactive: 0.068	inactive: -0.004	inactive: -0.125	inactive: -0.048	inactive: 0.076	inactive: -0.018	inactive: 0.198	inactive: -0.016	inactive: 0.063	inactive: 0.014	inactive: 0.048	inactive: -0.068	inactive: -0.008	inactive: 0.022	inactive: -0.064	inactive: 0	inactive: 0.021		
SYNJ2 (UniProt O15056)	inactive: 0.112	inactive: 0.06	inactive: -0.037		inactive: -0.008	inactive: 0.257	inactive: -0.003	inactive: -0.075	inactive: -0.201	inactive: 0.003	inactive: -0.159	inactive: -0.298	inactive: -0.188	inactive: 0.192		inactive: -0.03		inactive: 0.315	inactive: -0.242	
SYNE1 (UniProt Q8NF91)	inactive: 0.096	inactive: -0.132	inactive: -0.041	inactive: 0.104	inactive: 0.109	inactive: -0.04	inactive: 0.061	inactive: -0.159	inactive: -0.051	inactive: 0.008	inactive: 0.021	inactive: -0.281	inactive: -0.074	inactive: -0.074	inactive: 0.079	inactive: -0.098		inactive: 0.182		
STK39 (UniProt Q9UEW8)	inactive: 0.109	inactive: -0.174	inactive: 0.028	inactive: 0.061	inactive: -0.038	inactive: 0.048	inactive: -0.027	inactive: -0.038	inactive: -0.09	inactive: 0	inactive: -0.076	inactive: -0.028	inactive: -0.108	inactive: -0.016	inactive: -0.008	inactive: -0.032	inactive: -0.031	inactive: -0.083		
TATDN2 (UniProt Q93075)	inactive: 0.002	inactive: -0.061	inactive: 0.028	inactive: 0.078	inactive: 0.106	inactive: 0.045	inactive: 0.063		inactive: 0.088	inactive: -0.151	inactive: 0.137	inactive: -0.217	inactive: -0.042	inactive: -0.043	inactive: -0.059		inactive: 0.074			
SUMF1 isoform 3 (UniProt Q8NBK3)	inactive: -0.134	inactive: 0.037	inactive: 0.118		inactive: -0.031	inactive: -0.03	inactive: -0.1	inactive: -0.018		inactive: -0.032	inactive: 0.16	inactive: 0	inactive: -0.049	inactive: 0.021		inactive: 0.04	inactive: -0.059	inactive: -0.075	inactive: 0.11	inactive: -0.342
SURF2 (UniProt Q15527)	inactive: -0.009	inactive: 0.084	inactive: -0.02	inactive: -0.118	inactive: 0	inactive: 0.04	inactive: -0.068	inactive: 0.038	inactive: -0.103	inactive: 0.039	inactive: 0.054	inactive: -0.048	inactive: -0.02	inactive: 0.082	inactive: -0.012	inactive: 0.053	inactive: 0.034	inactive: -0.013		
STXBP5L (UniProt Q9Y2K9)	inactive: -0.111	inactive: -0.128		inactive: -0.01	inactive: 0.108	inactive: 0.2	inactive: -0.04			inactive: 0.151	inactive: 0.034	inactive: -0.02	inactive: -0.105	inactive: 0.006	inactive: -0.054		inactive: 0.102		inactive: -0.026	
STX17 (UniProt P56962)	inactive: 0.197	inactive: -0.27	inactive: 0.025	inactive: -0.171	inactive: -0.026	inactive: 0.001	inactive: 0.031	inactive: -0.246	inactive: -0.049	inactive: -0.028	inactive: 0.028	inactive: -0.057	inactive: -0.027	inactive: -0.051	inactive: 0.071	inactive: 0.002	inactive: -0.012	inactive: 0.074		
STXBP5 (UniProt Q5T5C0)	inactive: -0.021	inactive: -0.024	inactive: 0.006	inactive: 0.047	inactive: -0.029	inactive: -0.002	inactive: 0.026	inactive: -0.058	inactive: -0.032	inactive: 0.017	inactive: 0.003	inactive: -0.025	inactive: -0.06	inactive: -0.003	inactive: 0.021	inactive: -0.026	inactive: -0.049	inactive: -0.021		
STX7 (UniProt O15400)	inactive: 0	inactive: -0.187	inactive: 0.015	inactive: -0.042	inactive: -0.18	inactive: -0.055	inactive: 0.04	active: -0.246	inactive: -0.06	inactive: -0.135	inactive: 0.009	inactive: 0.013	inactive: 0.03	inactive: -0.017	inactive: -0.007	inactive: 0.029	inactive: 0.025	inactive: 0.007		
SUPT16H (UniProt Q9Y5B9)	inactive: 0.138	inactive: -0.062	inactive: 0.251	inactive: -0.093	inactive: -0.024	inactive: 0.248	inactive: -0.047	inactive: 0.028	inactive: 0.006	inactive: 0.049	inactive: 0.011	inactive: -0.088	inactive: -0.269	inactive: -0.103	inactive: 0.073	inactive: 0.108	inactive: -0.088	inactive: 0.047		
SULT1A1 (UniProt P50225)	inactive: -0.019	inactive: 0.065	inactive: 0.065	inactive: -0.073	inactive: -0.029	inactive: 0.035	inactive: 0.016	inactive: -0.018	inactive: -0.067	inactive: 0.222	inactive: -0.072	inactive: -0.065	inactive: -0.172	inactive: -0.002	active: 0.333	active: 0.353	inactive: -0.097	inactive: -0.069		
SUCLA2 (UniProt Q9P2R7)	inactive: 0.034	inactive: 0.001	inactive: 0.087	inactive: -0.011	inactive: -0.058	inactive: 0.012	inactive: 0.003	inactive: -0.064	inactive: 0	inactive: -0.065	inactive: -0.098	inactive: 0.057	inactive: -0.149	inactive: -0.04	inactive: 0.005	inactive: 0.038	inactive: -0.01	active: -0.697		
TAF9 (UniProt Q16594)	inactive: -0.029	inactive: 0.043	inactive: 0.007	inactive: 0.116	inactive: -0.047	inactive: -0.131	inactive: -0.019	inactive: -0.007	inactive: -0.076	inactive: -0.026	inactive: 0.061	inactive: -0.031	inactive: 0.146	inactive: -0.086	inactive: -0.12	inactive: -0.011	inactive: 0.077	inactive: -0.005		
SUGP1 (UniProt Q8IWZ8)	inactive: 0.021	inactive: -0.001	inactive: 0.015	inactive: -0.064	inactive: -0.077	inactive: 0.09	inactive: -0.033	inactive: 0.019	inactive: -0.033	inactive: 0.012	inactive: -0.019	inactive: -0.058	inactive: -0.139	inactive: -0.043	inactive: 0.08	inactive: -0.012	inactive: -0.007	inactive: 0.063		
SUOX (UniProt P51687)	inactive: 0.016	inactive: 0.076	inactive: 0.098	inactive: 0.001	inactive: 0.063	inactive: -0.075	inactive: -0.338	inactive: -0.034	inactive: -0.084	inactive: -0.181	inactive: 0.063	inactive: 0.013	inactive: 0	inactive: -0.066	inactive: -0.015	inactive: 0.063	inactive: 0.019	inactive: 0.032		
TAOK3 (UniProt Q9H2K8)	inactive: -0.051	inactive: -0.03	inactive: -0.008	inactive: -0.13	inactive: -0.08	inactive: 0.057	inactive: 0.023	inactive: 0.01	inactive: -0.066	inactive: 0.012	inactive: -0.05	inactive: 0.03	inactive: -0.048	inactive: -0.048	inactive: 0.025	inactive: -0.009	inactive: -0.026	inactive: 0.018		

An excerpt of these results, in CSV form.
Target,log2 fold change [1],log2 fold change (crizotinib),log2 fold change [2],log2 fold change [3],log2 fold change (gandotinib),log2 fold change [4],log2 fold change (doramapimod),log2 fold change (ispinesib),log2 fold change (bafetinib),log2 fold change [5],log2 fold change (nilotinib),log2 fold change [6],log2 fold change (dasatinib),log2 fold change [7],log2 fold change [8],log2 fold change [9],log2 fold change (tipifarnib),log2 fold change (mubritinib),log2 fold change (duvelisib),log2 fold change (tozasertib)
TATDN2 (UniProt Q93075),inactive: 0.002,inactive: -0.061,inactive: 0.028,inactive: 0.078,inactive: 0.106,inactive: 0.045,inactive: 0.063,,inactive: 0.088,inactive: -0.151,inactive: 0.137,inactive: -0.217,inactive: -0.042,inactive: -0.043,inactive: -0.059,,inactive: 0.074,,,
SUMF1 isoform 3 (UniProt Q8NBK3),inactive: -0.134,inactive: 0.037,inactive: 0.118,,inactive: -0.031,inactive: -0.03,inactive: -0.1,inactive: -0.018,,inactive: -0.032,inactive: 0.16,inactive: 0,inactive: -0.049,inactive: 0.021,,inactive: 0.04,inactive: -0.059,inactive: -0.075,inactive: 0.11,inactive: -0.342
